Two molecules from publication PMC4872778 can be followed below.

The chains behind the UniProt entries cited, without tags or fusion partners. Where a name states a change or a piece, a line headed by the entry shows the natural chain unless it says otherwise.
UniProt P53355: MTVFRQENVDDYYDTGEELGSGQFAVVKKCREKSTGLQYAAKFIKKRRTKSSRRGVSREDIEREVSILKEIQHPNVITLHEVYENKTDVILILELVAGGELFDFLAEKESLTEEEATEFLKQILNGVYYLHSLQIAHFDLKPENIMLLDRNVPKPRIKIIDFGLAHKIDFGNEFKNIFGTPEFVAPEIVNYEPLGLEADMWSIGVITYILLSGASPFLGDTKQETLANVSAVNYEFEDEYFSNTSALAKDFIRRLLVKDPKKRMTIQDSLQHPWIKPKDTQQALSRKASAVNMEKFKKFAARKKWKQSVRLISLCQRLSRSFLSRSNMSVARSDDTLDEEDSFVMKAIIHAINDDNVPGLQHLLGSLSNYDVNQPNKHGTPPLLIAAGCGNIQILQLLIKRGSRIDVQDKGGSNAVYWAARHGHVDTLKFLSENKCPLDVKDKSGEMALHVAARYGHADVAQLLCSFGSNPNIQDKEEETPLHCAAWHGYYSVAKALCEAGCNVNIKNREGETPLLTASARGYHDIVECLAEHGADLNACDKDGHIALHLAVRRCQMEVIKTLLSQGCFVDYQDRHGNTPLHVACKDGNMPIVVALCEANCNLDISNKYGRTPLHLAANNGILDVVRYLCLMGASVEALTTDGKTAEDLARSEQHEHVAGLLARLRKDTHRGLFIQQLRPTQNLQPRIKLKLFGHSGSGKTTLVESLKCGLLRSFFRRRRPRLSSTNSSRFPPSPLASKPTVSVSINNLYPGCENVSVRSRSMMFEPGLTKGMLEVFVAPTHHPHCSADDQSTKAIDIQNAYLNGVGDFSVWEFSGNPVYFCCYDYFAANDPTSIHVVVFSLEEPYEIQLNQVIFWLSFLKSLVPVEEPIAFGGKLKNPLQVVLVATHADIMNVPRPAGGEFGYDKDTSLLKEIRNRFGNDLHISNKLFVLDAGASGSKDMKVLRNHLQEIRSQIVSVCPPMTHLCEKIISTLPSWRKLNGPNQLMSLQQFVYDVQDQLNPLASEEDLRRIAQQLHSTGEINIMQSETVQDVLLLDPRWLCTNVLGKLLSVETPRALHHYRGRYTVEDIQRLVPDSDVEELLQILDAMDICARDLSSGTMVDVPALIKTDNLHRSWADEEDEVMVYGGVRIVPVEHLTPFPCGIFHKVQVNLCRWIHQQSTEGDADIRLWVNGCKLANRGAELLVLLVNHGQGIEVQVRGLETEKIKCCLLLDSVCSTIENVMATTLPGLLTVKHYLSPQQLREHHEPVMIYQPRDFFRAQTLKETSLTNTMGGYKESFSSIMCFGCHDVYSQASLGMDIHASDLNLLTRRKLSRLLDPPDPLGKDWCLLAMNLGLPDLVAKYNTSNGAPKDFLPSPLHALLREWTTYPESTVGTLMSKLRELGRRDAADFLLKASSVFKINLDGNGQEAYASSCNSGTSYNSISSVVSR

Assay [1] has as its target DAPK-ΔDD-VN (from pBiFC-DAPK (ΔDD)-VN) (UniProt P53355). Nature of the assay: split reporter; BiFC with Venus fragments (VN on DAPK forms, VC on DANGER) in transiently transfected live NCI-H460 or A427 cells; fluorescence microscopy.
In assay [2] the target is DAPK-ΔDD as used in the IP assay of Figure 4D (UniProt P53355). As to the kind of experiment: co-IP; IP assay ('binding assay') of DAPK forms (WT, DD-only, ΔDD) with DANGER (Figure 4D); antibodies and constructs not told.

No constants are given. Whether binding was seen depends on the method and setting. In cells and extracts the contact can be indirect.

B1: DANGER-VC (from pBiFC-DANGER-VC) (protein, UniProt Q8IWB1 16-547)
chain: IINHPLLFPRENATVPENEEEIIRKMQAHQEKLQLEQLRLEEEVARLAAEKEALEQVAEEGRQQNETRVAWDLWSTLCMILFLMIEVWRQDHQEGPSPECLGGEEDELPGLGGAPLQGLTLPNKATLGHFYERCIRGATADAARTREFLEGFVDDLLEALRSLCNRDTDMEVEDFIGVDSMYENWQVDRPLLCHLFVPFTPPEPYRFHPELWCSGRSVPLDRQGYGQIKVVRADGDTLSCICGKTKLGEDMLCLLHGRNSMAPPCGDMENLLCATDSLYLDTMQVMKWFQTALTRAWKGIAHKYEFDLAFGQLDSPGSLKIKFRSGKFMPFNLIPVIQCDDSDLYFVSHLPREPSEGTPASSTDWLLSFAVYERHFLRTTLKALPEGACHLSCLQIASFLLSKQSRLTGPSGLSSYHLKTALLHLLLLRQAADWKAGQLDARLHELLCFLEKSLLQKKLHHFFIGNRKVPEAMGLPEAVLRAEPLNLFRPFVLQRSLYRKTLDSFYEMLKNAPALISEYSLHVPSDQPTPKS
In the case of B1, in assay [1], the binding entry is “no binding”.

B2: DANGER as used in the IP assays of Figures 3A, 3B and 4D (protein, UniProt Q8IWB1 16-547)
chain: IINHPLLFPRENATVPENEEEIIRKMQAHQEKLQLEQLRLEEEVARLAAEKEALEQVAEEGRQQNETRVAWDLWSTLCMILFLMIEVWRQDHQEGPSPECLGGEEDELPGLGGAPLQGLTLPNKATLGHFYERCIRGATADAARTREFLEGFVDDLLEALRSLCNRDTDMEVEDFIGVDSMYENWQVDRPLLCHLFVPFTPPEPYRFHPELWCSGRSVPLDRQGYGQIKVVRADGDTLSCICGKTKLGEDMLCLLHGRNSMAPPCGDMENLLCATDSLYLDTMQVMKWFQTALTRAWKGIAHKYEFDLAFGQLDSPGSLKIKFRSGKFMPFNLIPVIQCDDSDLYFVSHLPREPSEGTPASSTDWLLSFAVYERHFLRTTLKALPEGACHLSCLQIASFLLSKQSRLTGPSGLSSYHLKTALLHLLLLRQAADWKAGQLDARLHELLCFLEKSLLQKKLHHFFIGNRKVPEAMGLPEAVLRAEPLNLFRPFVLQRSLYRKTLDSFYEMLKNAPALISEYSLHVPSDQPTPKS
Consider B2, for which the binding result in assay [2] was “no binding”.
